Reference: paper PMC10021968
Results are given in words; binding and its absence hold for the method and conditions named. Binding seen in cells or lysates may run through a third protein. Some results given as binding are weak or reduced against the parent protein; the word gives no strength.

Target: T1, GrpE-like 2 (Grpel2) (mouse (endogenous in neonatal mouse cardiomyocytes)) (UniProt O88396)
T1 sequence: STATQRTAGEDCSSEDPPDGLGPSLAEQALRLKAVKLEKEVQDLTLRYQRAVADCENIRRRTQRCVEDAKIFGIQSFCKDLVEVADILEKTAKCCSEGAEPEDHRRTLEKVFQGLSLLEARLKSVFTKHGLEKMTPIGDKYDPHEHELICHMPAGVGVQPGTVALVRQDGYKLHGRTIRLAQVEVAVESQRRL
Assay: co-IP; whole-cell lysates of NCMs in IP lysis buffer (25 mM Tris-HCl pH 7.4, 150 mM NaCl, 1% NP-40, 1 mM EDTA, 5% glycerol); 1 mg supernatant with 1 ug antibody overnight at 4 °C, protein A/G magnetic beads 3 h at 4 °C; Western blot; done in both directions (Fig. 5A, B)

- binding: binds
B1: dihydrolipoyl succinyltransferase (DLST) (protein, UniProt Q9D2G2 69-454)
chain: NDVITVQTPAFAESVTEGDVRWEKAVGDAVAEDEVVCEIETDKTSVQVPSPANGIIEALLVPDGGKVEGGTPLFTLRKTGAAPAKAKPAETPAPAHKAEPAAPAAPPPPAAPVLTQMPPVPSPSQPPSSKPVSAIKPTAAPPLAEAGAAKGLRSEHREKMNRMRQRIAQRLKEAQNTCAMLTTFNEVDMSNIQEMRARHKDAFLKKHNLKLGFMSAFVKASAFALQEQPVVNAVIDDATKEVVYRDYIDISVAVATPRGLVVPVIRNVETMNYADIERTINELGEKARKNELAIEDMDGGTFTISNGGVFGSLFGTPIINPPQSAILGMHAIFDRPVAVGGKVEVRPMMYVALTYDHRLIDGREAVTFLRKIKAAVEDPRVLLLDL
